PubChem BioAssay AID1159578 | Peter MacCallum Cancer Centre | 2015
Test: 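Knock-downs that alter how fast lymphatic endothelial cells migrate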 (primary screen). Cell system: human lymphatic endothelial cells. Knock-down reagent: siRNA pool against human genes, 40 nM. Time to read-out: 48 h after transfection. Read-out: 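Cells stained with dye and imaged after a scratch; covered wound area and nuclei counted, duplicates averaged, migration set against mock wells and turned into a robust z-score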. Reading the numbers: migration robust z-score: higher = faster migration into the scratch; migration relative to mock: higher = more scratch area covered than mock; nuclei per well: higher = more cells in the well. Active means: 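Pools averaging fewer than 3300 nuclei are never called; remaining pools count as changed when migration robust z lies outside -2 to 2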. Meaning of the calls: active = migration changed; inactive = no migration change, or too few cells.
This is a random part of about 18,000 deposited reagents. About 1,030 of all reagents (5.7%) count as active. 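Inactive calls also include pools with fewer than 3300 nuclei, whose migration was not assessed.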 Raw values vary from plate to plate and are shown uncorrected. A number with no mark means an inactive call.

no.	Gene	PubChem SID	migration robust z-score	migration class with cell-count check	migration relative to mock	nuclei per well, duplicate mean
1	ZER1 (zyg-11 related cell cycle regulator)	SID255355082	0.98	migration z between -2 and 2; enough cells	1.14	5750
2	H4C8 (H4 clustered histone 8)	SID255353508	1	migration z between -2 and 2; enough cells	1.14	5170
3	HHIPL2 (HHIP like 2)	SID255360475	0.57	migration z between -2 and 2; enough cells	1.03	6603
4	NPAS3 (neuronal PAS domain protein 3)	SID255359809	0.72	migration z between -2 and 2; enough cells	1.07	5612
5	CDR1 (cerebellar degeneration related 1)	SID255348854	0.09	migration z between -2 and 2; enough cells	0.91	5977
6	KCNE5	SID255356378	-0.39	migration z between -2 and 2; enough cells	0.73	5832
7	YBX2 (Y-box binding protein 2)	SID255357463	-0.36	migration z between -2 and 2; enough cells	0.74	5992
8	VGLL4 (vestigial like family member 4)	SID255354471	0.6	migration z between -2 and 2; enough cells	1.04	5611
9	IQUB (IQ motif and ubiquitin domain containing)	SID255363602	-0.66	migration z between -2 and 2; enough cells	0.72	6874
10	SSNA1 (SS nuclear autoantigen 1)	SID255353696	-2.33 (active)	migration z below -2; enough cells	0.28	6026
11	KEL (Kell metallo-endopeptidase (Kell blood group))	SID255350637	1.06	migration z between -2 and 2; enough cells	1.01	6022
12	SERPINA4 (serpin family A member 4)	SID255351562	-2.34 (active)	migration z below -2; enough cells	0.36	4240
13	MIR9-1HG (MIR9-1 host gene)	SID255355120	-0.03	migration z between -2 and 2; enough cells	0.88	4654
14	OCA2 (OCA2 melanosomal transmembrane protein)	SID255351336	-0.11	migration z between -2 and 2; enough cells	0.78	5750
15	PLGLB2 (plasminogen like B2)	SID255351628	-0.86	migration z between -2 and 2; enough cells	0.64	5900
16	KPNA1 (karyopherin subunit alpha 1)	SID255350667	-0.05	migration z between -2 and 2; enough cells	0.8	5866
17	GDAP1L1	SID255360149	1.01	migration z between -2 and 2; enough cells	1.15	5121
18	IAPP (islet amyloid polypeptide)	SID255350369	-0.84	migration z between -2 and 2; enough cells	0.66	6025
19	EMC3 (ER membrane protein complex subunit 3)	SID255358897	-0.99	migration z between -2 and 2; enough cells	0.63	6220
20	PMEL (premelanosome protein)	SID255352423	-2.33 (active)	migration z below -2; enough cells	0.36	5706
21	IKBKE (inhibitor of nuclear factor kappa B kinase subunit epsilon)	SID255354434	-2.77	under 3300 nuclei; migration not judged	0.27	2856
22	RSBN1L (round spermatid basic protein 1 like)	SID255364335	0.38	migration z between -2 and 2; enough cells	0.99	5847
23	PARM1 (prostate androgen-regulated mucin-like protein 1)	SID255356507	-0.16	migration z between -2 and 2; enough cells	0.84	5450
24	FBXO48 (F-box protein 48)	SID255366047	0.96	migration z between -2 and 2; enough cells	0.99	5417
25	ESR1 (estrogen receptor 1)	SID255349559	0.13	migration z between -2 and 2; enough cells	0.83	5970
26	SNU13 (small nuclear ribonucleoprotein 13)	SID255351241	-1.15	migration z between -2 and 2; enough cells	0.59	6092
27	PILRA (paired immunoglobin like type 2 receptor alpha)	SID255357268	0.04	migration z between -2 and 2; enough cells	0.9	6186
28	ZNF586 (zinc finger protein 586)	SID255358176	0.73	migration z between -2 and 2; enough cells	1.08	5310
29	XPNPEP3 (X-prolyl aminopeptidase 3)	SID255359779	-0.39	migration z between -2 and 2; enough cells	0.73	5214
30	HOXC13 (homeobox C13)	SID255350286	-0.89	migration z between -2 and 2; enough cells	0.66	6134
31	MIB1 (MIB E3 ubiquitin protein ligase 1)	SID255359449	1.94	migration z between -2 and 2; enough cells	1.18	4696
32	SPIN4 (spindlin family member 4)	SID255363089	-0.11	migration z between -2 and 2; enough cells	0.86	6133
33	ERO1A (endoplasmic reticulum oxidoreductase 1 alpha)	SID255357276	0.47	migration z between -2 and 2; enough cells	0.9	4635
34	GALC (galactosylceramidase)	SID255349813	1.38	migration z between -2 and 2; enough cells	1.07	5420
35	ADPRHL1 (ADP-ribosylhydrolase like 1)	SID255362198	-0.65	migration z between -2 and 2; enough cells	0.68	5694
36	H2AC13 (H2A clustered histone 13)	SID255353474	-1.94	migration z between -2 and 2; enough cells	0.38	4067
37	MFSD2B (MFSD2 lysolipid transporter B, sphingolipid)	SID255365528	0.06	migration z between -2 and 2; enough cells	0.9	6060
38	EME1 (essential meiotic structure-specific endonuclease 1)	SID255363311	-1.71	under 3300 nuclei; migration not judged	0.48	3040
39	PTCRA (pre T cell antigen receptor alpha)	SID255363939	0.74	migration z between -2 and 2; enough cells	1.08	6214
40	KCNJ2 (potassium inwardly rectifying channel subfamily J member 2)	SID255350607	0.42	migration z between -2 and 2; enough cells	0.88	5336
41	TRPV1	SID255353116	-1.46	migration z between -2 and 2; enough cells	0.52	5942
42	EPS8L2 (EPS8 signaling adaptor L2)	SID255360002	1.03	migration z between -2 and 2; enough cells	1.16	4102
43	WDR48 (WD repeat domain 48)	SID255359499	1.81	migration z between -2 and 2; enough cells	1.36	5960
44	CDK14 (cyclin dependent kinase 14)	SID255351533	-1.94	migration z between -2 and 2; enough cells	0.43	5437
45	DSCR10 (Down syndrome critical region 10)	SID255364573	1.44	migration z between -2 and 2; enough cells	1.25	4971
46	BCDIN3D (BCDIN3 domain containing RNA methyltransferase)	SID255363214	-0.62	migration z between -2 and 2; enough cells	0.72	7060
47	ZNF681 (zinc finger protein 681)	SID255363370	-0.9	migration z between -2 and 2; enough cells	0.66	6428
48	XRCC1 (X-ray repair cross complementing 1)	SID255353158	-0.57	migration z between -2 and 2; enough cells	0.7	5812
49	DPH2 (diphthamide biosynthesis 2)	SID255349355	-0.26	migration z between -2 and 2; enough cells	0.82	7160
50	FGF18 (fibroblast growth factor 18)	SID255353837	-0.68	migration z between -2 and 2; enough cells	0.68	4999
51	DAGLB (diacylglycerol lipase beta)	SID255364328	0.54	migration z between -2 and 2; enough cells	0.91	5686
52	VHL (von Hippel-Lindau tumor suppressor)	SID255353106	0.09	migration z between -2 and 2; enough cells	0.91	5675
53	H2BC7 (H2B clustered histone 7)	SID255353487	0.16	migration z between -2 and 2; enough cells	0.92	7077
54	MTMR11 (myotubularin related protein 11)	SID255355431	0.5	migration z between -2 and 2; enough cells	1.02	6538
55	NCR3 (natural cytotoxicity triggering receptor 3)	SID255364568	0.94	migration z between -2 and 2; enough cells	0.98	6064
56	SULT2B1 (sulfotransferase family 2B member 1)	SID255352694	-0.47	migration z between -2 and 2; enough cells	0.72	5139
57	ZNF552 (zinc finger protein 552)	SID255360488	-1.7	migration z between -2 and 2; enough cells	0.44	5334
58	DDX49 (DEAD-box helicase 49)	SID255358085	-1.12	migration z between -2 and 2; enough cells	0.59	5158
59	ABR (ABR activator of RhoGEF and GTPase)	SID255348129	-3.01 (active)	migration z below -2; enough cells	0.1	5152
60	SPATA9 (spermatogenesis associated 9)	SID255361122	0.2	migration z between -2 and 2; enough cells	0.94	5628
61	PPFIA3 (PPFI scaffold protein A3)	SID255353633	-0.05	migration z between -2 and 2; enough cells	0.8	4532
62	PTX3 (pentraxin 3)	SID255351973	0.62	migration z between -2 and 2; enough cells	1.04	5776
63	XIRP2 (xin actin binding repeat containing 2)	SID255362832	-0.11	migration z between -2 and 2; enough cells	0.86	5937
64	USP34 (ubiquitin specific peptidase 34)	SID255354513	0.68	migration z between -2 and 2; enough cells	0.94	5390
65	ITGA11 (integrin subunit alpha 11)	SID255355784	0.55	migration z between -2 and 2; enough cells	0.91	5982
66	AGR3	SID255363619	1.12	migration z between -2 and 2; enough cells	1.17	5704
67	KRT14 (keratin 14)	SID255350690	-0.46	migration z between -2 and 2; enough cells	0.77	5958
68	LYZL6 (lysozyme like 6)	SID255359303	-1.12	migration z between -2 and 2; enough cells	0.59	4603
69	C9orf72 (C9orf72-SMCR8 complex subunit)	SID255364120	-1.46	migration z between -2 and 2; enough cells	0.5	5588
70	SVIL (supervillin)	SID255352708	0.36	migration z between -2 and 2; enough cells	0.98	5777
71	PATJ (PATJ crumbs cell polarity complex component)	SID255354895	-0.24	migration z between -2 and 2; enough cells	0.82	5948
72	OR10Z1 (olfactory receptor family 10 subfamily Z member 1)	SID255362795	-0.73	migration z between -2 and 2; enough cells	0.7	5454
73	EPDR1 (ependymin related 1)	SID255358145	-0.03	migration z between -2 and 2; enough cells	0.88	5639

No new results follow: entries from further up.
no.	Gene	PubChem SID	migration robust z-score	migration class with cell-count check	migration relative to mock	nuclei per well, duplicate mean
35	ADPRHL1 (ADP-ribosylhydrolase like 1)	SID255362198	-0.65	migration z between -2 and 2; enough cells	0.68	5694
36	H2AC13 (H2A clustered histone 13)	SID255353474	-1.94	migration z between -2 and 2; enough cells	0.38	4067
37	MFSD2B (MFSD2 lysolipid transporter B, sphingolipid)	SID255365528	0.06	migration z between -2 and 2; enough cells	0.9	6060
38	EME1 (essential meiotic structure-specific endonuclease 1)	SID255363311	-1.71	under 3300 nuclei; migration not judged	0.48	3040
39	PTCRA (pre T cell antigen receptor alpha)	SID255363939	0.74	migration z between -2 and 2; enough cells	1.08	6214
